# Experimental data from PubChem BioAssay AID1671190 (National Center for Advancing Translational Sciences (NCATS), 2021).
# Chains of the proteins cited; added tags and fusions are not shown.
# UniProt P18054, whole entry, looked up: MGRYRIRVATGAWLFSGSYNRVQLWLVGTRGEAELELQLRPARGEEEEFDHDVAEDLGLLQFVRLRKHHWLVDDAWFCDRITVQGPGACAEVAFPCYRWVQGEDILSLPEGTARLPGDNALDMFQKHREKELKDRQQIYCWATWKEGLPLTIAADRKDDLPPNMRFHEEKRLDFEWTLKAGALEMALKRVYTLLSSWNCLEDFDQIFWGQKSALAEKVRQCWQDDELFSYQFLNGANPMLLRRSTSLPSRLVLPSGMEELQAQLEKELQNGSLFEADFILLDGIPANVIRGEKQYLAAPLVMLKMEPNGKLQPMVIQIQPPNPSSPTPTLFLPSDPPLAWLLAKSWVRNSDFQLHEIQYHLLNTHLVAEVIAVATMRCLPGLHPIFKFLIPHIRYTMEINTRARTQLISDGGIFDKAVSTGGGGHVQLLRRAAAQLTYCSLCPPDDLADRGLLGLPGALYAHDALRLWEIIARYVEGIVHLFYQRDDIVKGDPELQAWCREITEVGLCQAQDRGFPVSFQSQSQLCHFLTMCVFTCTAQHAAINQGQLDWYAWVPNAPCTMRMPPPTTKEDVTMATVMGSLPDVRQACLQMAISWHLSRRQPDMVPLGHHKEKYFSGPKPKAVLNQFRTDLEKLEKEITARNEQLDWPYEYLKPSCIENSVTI
# About 6,100 (1.1%) of roughly 580,000 compounds were called active. The inconclusive results got no clear call from the source; some entries with a clear call stand among them for comparison. The call rests on the fitted dose curve; in most records, active means well fitted inhibition curve with a large enough effect; inconclusive means small, poorly fitted or top-dose-only effect, or another doubt; inactive means no such curve, though single readings can be large or run the other way. A potency beside an inconclusive call is a rough fit, not a confirmed value.
# Target: Polyunsaturated fatty acid lipoxygenase ALOX12 (Homo sapiens) (UniProt P18054)
# Assay: Primary qHTS assay for inhibitors of human arachidonate 12S-lipoxygenase (ALOX12): Round 2
# Conditions: purified 12hLO, xylenol orange hydroperoxide absorbance; series mostly up to 108 µM
# Outline: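 Purified human 12hLO at 150 nM in 25 mM Hepes, 0.01% Triton X-100, pH 7.0, preincubated 15 min at room temperature with compound. Reaction started with 40 uM arachidonic acid, 30 min at room temperature. Hydroperoxide measured by Fe-xylenol orange, 573/405 nm absorbance ratio.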
# Potency means the concentration at half of the fitted maximal effect.
row,Structure (SMILES),Potency
1,CC(=O)c1c(SCC(=O)Nc2ccc(F)cc2)nc(=O)[nH]c1C,inactive
2,Cc1ccc(CN=Cc2[nH]c3ccc(Br)c(Cl)c3c2O)cc1,"inconclusive: 7.08 µM [inhibitor, full curve]"
3,O=S(=O)(NCc1ccc(Cl)cc1)c1ccc(Cl)nc1,"inconclusive: 50.1 µM [inhibitor, single point]"
4,COC(=O)c1cc(NC(=S)NCc2ccc(Cl)cc2)cc(C(=O)OC)c1,active: 44.7 µM
5,Cc1ccc(/C(O)=C2\C(=O)C(=O)N(C)C2c2cccc([N+](=O)[O-])c2)cc1 (stereo not drawn),"inconclusive: 44.7 µM [inhibitor, partial curve, poor fit]"
6,Cc1noc2c(Nc3ccc(C(N)=O)cc3)cc(-c3ccc(F)cc3)nc12,inactive
7,O=c1oc2ccc3ccccc3c2cc1-c1csc(Nc2ccccc2F)n1,inactive
8,Cc1nc(-c2ccccn2)nc(SCC(=O)c2ccccc2)c1Cl,"inconclusive: 39.8 µM [inhibitor, single point]"
9,COc1ccc(-c2nnc(SCc3nc(-c4ccco4)no3)n2CCc2ccccc2)cc1,"inconclusive: 15.8 µM [inhibitor, full curve, poor fit]"
10,CCN(CC)CCN1C(=O)C(=O)/C(=C(/O)c2c(C)[nH]c(C(=O)OC)c2C)C1c1ccco1 (stereo not drawn),"inconclusive: 35.5 µM [inhibitor, partial curve, poor fit]"
11,Cc1cccc(NC(=S)NC2CCCC2)c1C,"inconclusive: 44.7 µM [inhibitor, partial curve, poor fit]"
12,CCc1nc(-c2c3n(c(=O)n(Cc4cccc(C#N)c4)c2=O)CCCC3)no1,inactive
13,COc1ccc(-c2[nH]ncc2CN2CCN(C(=O)c3cccs3)CC2)c(F)c1,"inconclusive: 3.55 µM [inhibitor, full curve, poor fit]"
14,CC(=O)Nc1ccc(S(=O)(=O)NC2(C(F)(F)F)C(=O)Nc3c2c(=O)[nH]c(=O)n3-c2ccc(C)cc2)cc1 (stereo not drawn),"inconclusive: 89.1 µM [inhibitor, partial curve, poor fit]"
15,COc1ccc(CN2CCN(Cc3ccncc3)CC2)cc1OC,"inconclusive: 0.631 µM [inhibitor, full curve, poor fit]"
16,Cc1ccccc1OCc1nc(C2CN(C(=O)C(C)c3ccccc3)C2)no1 (stereo not drawn),inactive
17,CS(=O)(=O)c1ccc(Cl)c(NC(=O)COC(=O)c2cccc(S(=O)(=O)N3CCCC3)c2)c1,"inconclusive: 79.4 µM [inhibitor, single point]"
18,CCOC(=O)c1nc2ccc(C)cc2c2c1C1CC(c3c(Cl)cccc31)N2C(=O)OCc1ccccc1 (stereo not drawn),"inconclusive: 35.5 µM [inhibitor, single point]"
19,COc1ccccc1CNc1ncccn1,"inconclusive: 0.398 µM [inhibitor, full curve, poor fit]"
20,Cc1ccc(O)c(C(=O)CC(=O)c2cccc(F)c2)c1,"inconclusive: 39.8 µM [inhibitor, partial curve, poor fit]"
21,COc1ccccc1C(=O)Nc1ccc2oc(-c3ccc(F)cc3)nc2c1,"inconclusive: 126 µM [inhibitor, single point]"

# An excerpt from above in order of heavy-atom count, low to high.
row,Structure (SMILES),Potency
19,COc1ccccc1CNc1ncccn1,"inconclusive: 0.398 µM [inhibitor, full curve, poor fit]"
11,Cc1cccc(NC(=S)NC2CCCC2)c1C,"inconclusive: 44.7 µM [inhibitor, partial curve, poor fit]"
5,Cc1ccc(/C(O)=C2\C(=O)C(=O)N(C)C2c2cccc([N+](=O)[O-])c2)cc1 (stereo not drawn),"inconclusive: 44.7 µM [inhibitor, partial curve, poor fit]"
21,COc1ccccc1C(=O)Nc1ccc2oc(-c3ccc(F)cc3)nc2c1,"inconclusive: 126 µM [inhibitor, single point]"
13,COc1ccc(-c2[nH]ncc2CN2CCN(C(=O)c3cccs3)CC2)c(F)c1,"inconclusive: 3.55 µM [inhibitor, full curve, poor fit]"

# Further compounds follow:

row,Structure (SMILES),Potency
1,C[N+](C)(C)CCOC(=O)CCC(=O)O,"inconclusive: 39.8 µM [inhibitor, partial curve, poor fit]"
2,C(#Cc1ccccc1)C[N+]1(CC#Cc2ccc(C#CC[N+]3(CC#Cc4ccccc4)CCOCC3)cc2)CCOCC1,"inconclusive: 3.16 µM [inhibitor, full curve, poor fit]"
3,Cc1ccccc1NC(=O)c1nc2ccccc2nc1N1CCN(C)CC1,inactive
4,CC(O)c1n(C)c(Cl)c[n+]1C (stereo not drawn),"inconclusive: 0.398 µM [inhibitor, partial curve, poor fit]"
5,O=c1[nH]c(C2CCN(S(=O)(=O)/C=C/c3ccccc3)CC2)nc2c1nnn2Cc1ccc(F)cc1,"inconclusive: 112 µM [inhibitor, partial curve, poor fit]"
6,CCOC(=O)C1(Cc2ccccc2C(F)(F)F)CCN(Cc2ccccn2)CC1,active: 15.8 µM
7,CCCCN=Cc1sc2ccc(OCC)cc2c1O,inactive
8,CN(C)c1nc2c(c(=O)[nH]1)CCN(Cc1ccccc1Br)CC2,inactive
9,Cc1ccc(Cn2c(C)c3cnn(CC(=O)N4CCN(c5cc(C)ccc5C)CC4)c(=O)c3c2C)cc1,"inconclusive: 50.1 µM [inhibitor, partial curve, poor fit]"
10,N#CCC(=O)c1ccc(N)cc1,inactive
11,O=C(NCc1ccc2c(c1)OCO2)C(=O)NC1CCCCC1,"inconclusive: 28.2 µM [inhibitor, partial curve, poor fit]"
12,COc1ccc(-c2csc(NC(=S)NC(=O)c3ccco3)n2)cc1Br,"inconclusive: 22.4 µM [inhibitor, partial curve, poor fit]"
13,Nc1cc(=O)n(Cc2ccco2)c(=S)[nH]1,"inconclusive: 7.08 µM [inhibitor, partial curve, poor fit]"
14,CC(=O)c1ccc(N2CCN(C(=O)C(=O)c3cn(CC(=O)N4CCCCCC4)c4ccccc34)CC2)cc1,inactive
15,COc1ccc(NC(=O)Cn2c(=O)n(Cc3ccco3)c(=O)c3sc4ccccc4c32)cc1Cl,"inconclusive: 141 µM [inhibitor, partial curve, poor fit]"
16,O=C(Nc1nc(-c2ccccn2)cs1)c1cccc(-n2cnnn2)c1,inactive
17,Cc1cc(C)c(NS(=O)(=O)c2ccc3c(c2)oc(=O)n3C)c(C)c1,"inconclusive: 89.1 µM [inhibitor, single point]"
18,Cn1c(=O)cc(OCCCC(=O)NCc2ccco2)c2ccccc21,"inconclusive: 50.1 µM [inhibitor, partial curve, poor fit]"
19,COc1ccc2cc(OCC(=O)NNC(=O)Nc3ccc(OC)c(OC)c3)ccc2c1,"inconclusive: 35.5 µM [inhibitor, partial curve, poor fit]"
20,CC1=C(C(=O)Nc2ccccn2)C(c2ccc(Cl)cc2Cl)NC(=S)N1 (stereo not drawn),"inconclusive: 50.1 µM [inhibitor, partial curve, poor fit]"
21,COc1ccc2cc(CN(CCc3ccccc3)Cc3nnnn3CC3CCCO3)c(=O)[nH]c2c1 (stereo not drawn),"inconclusive: 0.355 µM [inhibitor, full curve, poor fit]"

row,Structure (SMILES),Potency
1,Cc1ccc(-c2cc3c(ccn3C)c(C(=O)NCCc3cnc[nH]3)n2)cn1,inactive
2,CC(=O)Nc1ccc(NC(=O)c2ccccc2Br)cc1,inactive
3,O=C(CSc1nnc(-c2ccncc2)n1-c1ccc(Cl)cc1)Nc1ccc(F)cc1,"inconclusive: 0.631 µM [inhibitor, full curve, poor fit]"
4,COC(=O)[C@@]1(Cc2ccc(F)cc2)[C@H]2c3cc(C(=O)N(C)C)n(Cc4cc(F)cc5c4OCOC5)c3C[C@H]2CN1C(=O)c1ccccc1,"inconclusive: 10 µM [inhibitor, full curve, poor fit]"
5,CN(C)CCCN(C(=O)c1ccc2c(c1)CCCC2)c1nc2cc3c(cc2s1)OCO3,"inconclusive: 44.7 µM [inhibitor, partial curve, poor fit]"
6,Cc1ccc(C2Cc3ccccc3N2)c(C)c1 (stereo not drawn),"inconclusive: 2 µM [inhibitor, full curve, poor fit]"
7,COC(=O)c1ccc(CSc2nc3ccccc3c(=O)n2C)o1,"inconclusive: 56.2 µM [inhibitor, partial curve, poor fit]"
8,S=C(NC(=NCc1ccccc1)c1ccccc1)Nc1ccccc1,active: 14.1 µM
9,Cc1cnc(CCNS(=O)(=O)c2cn(C)cn2)n1C1CC1,inactive
10,Cn1cccc1CN[C@H]1[C@H](O)[C@@H](N2CCC(C(N)=O)CC2)[C@@H]2OC[C@H]1O2,inactive
11,O=C(c1cc(S(=O)(=O)N2CCCC2)c(Cl)cc1Cl)N1CCCC1,"inconclusive: 39.8 µM [inhibitor, partial curve, poor fit]"
12,O=c1c(-c2ccc(O)cc2)coc2cc(OC3O[C@H](CO)[C@H](O)[C@H](O)[C@H]3O)cc(O)c12 (stereo partly drawn),"inconclusive: 24.3 µM [inhibitor, partial curve, poor fit]"
13,CCOC(=O)c1cc(S(=O)(=O)Nc2ccc(CC)cc2)[nH]n1,"inconclusive: 50.1 µM [inhibitor, partial curve, poor fit]"
14,CC(C)CC(NC(=O)c1ccc(Cl)cc1)C(=O)OCC(=O)c1ccc2c(c1)NC(=O)CO2 (stereo not drawn),inactive
15,COc1cc(/C=C/C(=O)O)cc(S(=O)(=O)N2CCc3ccccc3C2)c1OC,inactive
16,Cc1[nH]nc2c1C(c1cccc(OCc3ccc(Cl)cc3)c1)C(C#N)=C(N)O2 (stereo not drawn),"inconclusive: 31.6 µM [inhibitor, single point]"
17,O=C(CCc1nc2sc3c(c2c(=O)[nH]1)CCC3)NCc1cccc(C(F)(F)F)c1,"inconclusive: 112 µM [inhibitor, partial curve, poor fit]"
18,Cc1ccc(C(=O)NCc2ccc(Cl)cc2)cc1S(=O)(=O)N1CCCCC1,inactive
19,Cc1cc2nc3n(c(=O)c2n1CC(=O)Nc1ccc(F)c(F)c1)CCCCC3,"inconclusive: 20 µM [inhibitor, full curve, poor fit]"
20,COc1ccc(-c2ccc(OC)c([C@H]3[C@H]4C=CC[C@@H](C)[C@@H]4C(=O)N3Cc3ccccc3)c2)cc1OC,"inconclusive: 100 µM [inhibitor, partial curve, poor fit]"
21,Cc1ccc(S(=O)(=O)N[C@H](C(=O)NCC2CCC(C(=O)O)CC2)C(C)C)cc1 (stereo partly drawn),"inconclusive: 31.6 µM [inhibitor, partial curve, poor fit]"
